For 23 targets, log2 fold change results are on record in the supplement of paper PMC10849652.

Protein sequences, listed by entry. Tags and fused reporters are not part of them. Lines headed by an entry give the natural chain unless they say otherwise; changes in a name come on top.
UniProt P48643, whole entry, looked up: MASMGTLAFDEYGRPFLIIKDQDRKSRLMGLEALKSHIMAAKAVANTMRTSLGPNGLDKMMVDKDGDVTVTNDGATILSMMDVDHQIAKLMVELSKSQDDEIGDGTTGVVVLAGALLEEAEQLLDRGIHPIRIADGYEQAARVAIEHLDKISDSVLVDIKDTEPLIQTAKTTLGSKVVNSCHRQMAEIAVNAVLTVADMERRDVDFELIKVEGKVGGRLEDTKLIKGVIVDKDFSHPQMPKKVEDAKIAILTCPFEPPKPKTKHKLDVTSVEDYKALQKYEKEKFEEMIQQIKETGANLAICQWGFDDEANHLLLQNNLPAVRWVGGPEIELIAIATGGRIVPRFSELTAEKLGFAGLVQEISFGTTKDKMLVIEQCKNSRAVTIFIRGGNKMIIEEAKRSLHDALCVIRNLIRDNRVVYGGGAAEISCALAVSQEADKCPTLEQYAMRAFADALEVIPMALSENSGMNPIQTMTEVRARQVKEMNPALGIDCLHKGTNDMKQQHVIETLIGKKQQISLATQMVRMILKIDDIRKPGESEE
UniProt Q75N03: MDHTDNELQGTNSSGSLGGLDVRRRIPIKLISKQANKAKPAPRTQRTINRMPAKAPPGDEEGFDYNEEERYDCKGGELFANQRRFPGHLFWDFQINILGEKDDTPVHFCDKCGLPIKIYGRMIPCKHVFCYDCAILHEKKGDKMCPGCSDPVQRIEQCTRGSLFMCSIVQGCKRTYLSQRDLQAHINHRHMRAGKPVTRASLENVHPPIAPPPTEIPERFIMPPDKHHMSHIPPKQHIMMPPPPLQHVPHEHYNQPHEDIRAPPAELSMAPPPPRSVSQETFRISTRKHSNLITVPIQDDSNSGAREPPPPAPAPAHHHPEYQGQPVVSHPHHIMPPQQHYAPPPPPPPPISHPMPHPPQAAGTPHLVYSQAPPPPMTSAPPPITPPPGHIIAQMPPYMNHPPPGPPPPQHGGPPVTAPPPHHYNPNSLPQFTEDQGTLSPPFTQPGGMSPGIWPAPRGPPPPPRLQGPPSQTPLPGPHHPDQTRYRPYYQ
UniProt Q9BV29: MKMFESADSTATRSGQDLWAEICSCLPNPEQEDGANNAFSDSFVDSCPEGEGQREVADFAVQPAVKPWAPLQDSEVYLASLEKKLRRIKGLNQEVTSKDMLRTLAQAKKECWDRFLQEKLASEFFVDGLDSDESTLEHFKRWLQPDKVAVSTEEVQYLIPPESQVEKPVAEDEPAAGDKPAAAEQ
UniProt Q9Y5K6, whole entry, looked up: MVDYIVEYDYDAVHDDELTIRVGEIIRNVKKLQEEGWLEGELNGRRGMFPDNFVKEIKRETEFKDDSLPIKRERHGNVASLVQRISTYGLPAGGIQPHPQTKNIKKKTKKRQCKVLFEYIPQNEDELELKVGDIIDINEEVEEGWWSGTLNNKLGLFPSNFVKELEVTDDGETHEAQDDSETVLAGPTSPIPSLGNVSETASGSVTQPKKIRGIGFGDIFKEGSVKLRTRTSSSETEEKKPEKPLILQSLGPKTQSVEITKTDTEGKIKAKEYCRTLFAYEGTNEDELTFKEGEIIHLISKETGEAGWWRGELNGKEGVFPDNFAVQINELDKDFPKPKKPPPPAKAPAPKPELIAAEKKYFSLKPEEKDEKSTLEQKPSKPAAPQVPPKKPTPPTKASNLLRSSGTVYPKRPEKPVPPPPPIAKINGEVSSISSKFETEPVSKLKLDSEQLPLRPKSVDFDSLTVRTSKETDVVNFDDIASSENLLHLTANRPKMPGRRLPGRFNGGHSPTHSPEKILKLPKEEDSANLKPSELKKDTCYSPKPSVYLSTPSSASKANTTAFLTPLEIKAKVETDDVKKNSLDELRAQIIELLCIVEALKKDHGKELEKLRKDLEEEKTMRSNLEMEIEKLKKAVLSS
UniProt Q99832: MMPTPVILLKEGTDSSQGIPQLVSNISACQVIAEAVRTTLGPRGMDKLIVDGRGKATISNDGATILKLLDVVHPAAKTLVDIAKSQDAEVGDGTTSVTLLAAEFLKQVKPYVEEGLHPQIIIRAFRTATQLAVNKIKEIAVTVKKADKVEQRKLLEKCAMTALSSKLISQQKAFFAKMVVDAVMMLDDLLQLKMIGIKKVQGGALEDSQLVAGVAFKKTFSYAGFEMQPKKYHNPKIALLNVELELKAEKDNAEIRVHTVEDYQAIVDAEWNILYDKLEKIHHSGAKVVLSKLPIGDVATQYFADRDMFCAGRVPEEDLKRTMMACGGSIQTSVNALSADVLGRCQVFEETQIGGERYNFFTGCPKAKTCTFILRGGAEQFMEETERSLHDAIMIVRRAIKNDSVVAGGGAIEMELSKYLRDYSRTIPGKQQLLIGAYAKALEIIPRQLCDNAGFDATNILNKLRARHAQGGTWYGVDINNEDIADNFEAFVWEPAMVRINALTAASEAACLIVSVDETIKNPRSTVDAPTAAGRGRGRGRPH
UniProt Q5T0F9: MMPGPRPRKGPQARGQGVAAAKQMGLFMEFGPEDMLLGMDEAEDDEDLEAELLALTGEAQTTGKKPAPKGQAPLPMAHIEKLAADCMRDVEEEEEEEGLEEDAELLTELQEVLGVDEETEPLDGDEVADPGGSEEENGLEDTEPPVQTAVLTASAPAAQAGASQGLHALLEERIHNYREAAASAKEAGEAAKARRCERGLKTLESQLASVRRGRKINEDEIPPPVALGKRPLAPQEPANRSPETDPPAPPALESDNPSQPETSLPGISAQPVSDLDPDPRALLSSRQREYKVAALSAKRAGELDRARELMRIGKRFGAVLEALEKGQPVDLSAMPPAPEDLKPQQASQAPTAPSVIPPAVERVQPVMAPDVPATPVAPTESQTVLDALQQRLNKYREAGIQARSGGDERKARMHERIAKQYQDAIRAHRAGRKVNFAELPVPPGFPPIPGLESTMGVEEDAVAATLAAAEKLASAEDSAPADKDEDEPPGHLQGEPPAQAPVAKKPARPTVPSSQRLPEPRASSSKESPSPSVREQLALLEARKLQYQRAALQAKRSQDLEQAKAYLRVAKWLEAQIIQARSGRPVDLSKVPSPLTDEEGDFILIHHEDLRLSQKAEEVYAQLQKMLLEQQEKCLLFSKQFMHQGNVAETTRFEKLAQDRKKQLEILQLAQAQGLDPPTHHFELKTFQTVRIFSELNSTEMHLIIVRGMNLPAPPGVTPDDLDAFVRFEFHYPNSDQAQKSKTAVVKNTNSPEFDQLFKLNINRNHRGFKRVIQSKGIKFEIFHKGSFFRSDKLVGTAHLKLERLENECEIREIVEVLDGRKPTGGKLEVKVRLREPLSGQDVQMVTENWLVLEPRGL
UniProt A6NKD9: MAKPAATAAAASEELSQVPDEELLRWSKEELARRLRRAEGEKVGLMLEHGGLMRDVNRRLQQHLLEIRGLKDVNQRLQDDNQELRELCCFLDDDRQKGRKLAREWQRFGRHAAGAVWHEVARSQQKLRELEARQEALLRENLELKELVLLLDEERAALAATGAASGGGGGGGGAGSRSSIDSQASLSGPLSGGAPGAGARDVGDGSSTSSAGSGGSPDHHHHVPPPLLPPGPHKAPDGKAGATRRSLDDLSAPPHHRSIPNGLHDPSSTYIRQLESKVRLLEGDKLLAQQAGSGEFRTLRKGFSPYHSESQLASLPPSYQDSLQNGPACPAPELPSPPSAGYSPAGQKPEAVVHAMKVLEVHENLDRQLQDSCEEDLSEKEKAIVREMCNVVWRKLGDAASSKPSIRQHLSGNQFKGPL
UniProt Q96BQ5: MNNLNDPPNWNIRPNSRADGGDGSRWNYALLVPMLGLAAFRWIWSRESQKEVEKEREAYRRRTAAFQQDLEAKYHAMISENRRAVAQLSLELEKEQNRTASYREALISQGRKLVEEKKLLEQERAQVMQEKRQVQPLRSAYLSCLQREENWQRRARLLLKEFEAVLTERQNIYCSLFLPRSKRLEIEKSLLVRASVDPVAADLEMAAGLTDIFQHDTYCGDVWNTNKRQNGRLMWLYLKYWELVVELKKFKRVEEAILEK
UniProt Q04900: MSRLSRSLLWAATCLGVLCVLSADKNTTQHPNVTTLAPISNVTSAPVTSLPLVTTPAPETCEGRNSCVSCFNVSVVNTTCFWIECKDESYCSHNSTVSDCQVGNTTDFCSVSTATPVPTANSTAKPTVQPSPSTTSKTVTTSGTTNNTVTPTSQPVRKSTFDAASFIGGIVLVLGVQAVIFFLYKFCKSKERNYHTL
UniProt P14209: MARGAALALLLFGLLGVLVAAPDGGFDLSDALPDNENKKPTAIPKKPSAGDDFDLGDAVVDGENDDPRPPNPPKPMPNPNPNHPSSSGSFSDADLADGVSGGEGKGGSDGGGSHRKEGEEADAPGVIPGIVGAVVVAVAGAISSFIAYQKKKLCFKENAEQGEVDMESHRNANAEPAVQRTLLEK
UniProt Q4G0I0: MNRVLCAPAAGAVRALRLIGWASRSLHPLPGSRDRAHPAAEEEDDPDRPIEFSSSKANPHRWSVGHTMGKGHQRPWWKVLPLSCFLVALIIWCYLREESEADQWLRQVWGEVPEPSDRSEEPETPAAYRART
UniProt Q13951, whole entry, looked up: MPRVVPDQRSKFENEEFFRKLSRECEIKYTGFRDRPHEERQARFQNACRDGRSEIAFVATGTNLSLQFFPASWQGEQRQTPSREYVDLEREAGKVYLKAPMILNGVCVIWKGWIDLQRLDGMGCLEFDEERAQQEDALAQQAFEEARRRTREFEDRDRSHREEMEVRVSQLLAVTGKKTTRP
UniProt Q8N4T8: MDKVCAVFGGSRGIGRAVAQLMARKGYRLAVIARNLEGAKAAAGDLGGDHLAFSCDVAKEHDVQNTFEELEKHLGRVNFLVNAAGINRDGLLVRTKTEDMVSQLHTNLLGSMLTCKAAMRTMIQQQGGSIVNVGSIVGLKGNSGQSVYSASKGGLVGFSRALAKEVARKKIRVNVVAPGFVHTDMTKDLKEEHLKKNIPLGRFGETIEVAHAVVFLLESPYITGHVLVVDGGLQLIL
UniProt Q86WR0: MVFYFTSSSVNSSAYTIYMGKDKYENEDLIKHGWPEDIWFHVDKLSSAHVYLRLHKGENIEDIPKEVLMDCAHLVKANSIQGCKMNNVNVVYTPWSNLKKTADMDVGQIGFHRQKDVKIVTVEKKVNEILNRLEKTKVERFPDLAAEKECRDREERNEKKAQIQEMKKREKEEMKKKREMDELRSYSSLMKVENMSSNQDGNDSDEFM
UniProt Q16204: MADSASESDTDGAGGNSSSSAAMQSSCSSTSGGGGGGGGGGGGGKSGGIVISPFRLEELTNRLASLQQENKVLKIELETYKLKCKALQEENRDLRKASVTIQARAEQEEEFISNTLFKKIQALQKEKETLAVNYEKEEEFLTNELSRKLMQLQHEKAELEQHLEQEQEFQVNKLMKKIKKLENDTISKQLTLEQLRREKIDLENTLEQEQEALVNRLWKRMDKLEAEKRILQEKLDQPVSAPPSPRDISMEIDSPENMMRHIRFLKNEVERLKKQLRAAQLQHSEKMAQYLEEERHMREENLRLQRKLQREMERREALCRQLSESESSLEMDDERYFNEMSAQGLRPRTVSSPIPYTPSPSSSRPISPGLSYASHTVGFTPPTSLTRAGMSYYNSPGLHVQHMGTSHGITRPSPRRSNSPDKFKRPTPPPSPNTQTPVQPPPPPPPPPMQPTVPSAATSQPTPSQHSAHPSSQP
UniProt P49368: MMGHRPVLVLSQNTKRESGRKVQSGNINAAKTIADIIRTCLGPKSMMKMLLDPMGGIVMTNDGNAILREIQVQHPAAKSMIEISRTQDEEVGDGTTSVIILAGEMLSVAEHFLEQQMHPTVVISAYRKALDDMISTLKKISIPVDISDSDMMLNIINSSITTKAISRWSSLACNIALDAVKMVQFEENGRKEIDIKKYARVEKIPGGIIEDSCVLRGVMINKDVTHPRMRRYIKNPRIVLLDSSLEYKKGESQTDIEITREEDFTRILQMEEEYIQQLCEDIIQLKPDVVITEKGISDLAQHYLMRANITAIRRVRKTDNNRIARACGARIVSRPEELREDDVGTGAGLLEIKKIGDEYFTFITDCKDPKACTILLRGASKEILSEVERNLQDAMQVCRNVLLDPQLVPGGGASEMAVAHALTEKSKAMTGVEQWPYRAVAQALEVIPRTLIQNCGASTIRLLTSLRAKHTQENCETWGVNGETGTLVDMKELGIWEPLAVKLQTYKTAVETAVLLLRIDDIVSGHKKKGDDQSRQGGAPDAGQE
UniProt Q8N7R7: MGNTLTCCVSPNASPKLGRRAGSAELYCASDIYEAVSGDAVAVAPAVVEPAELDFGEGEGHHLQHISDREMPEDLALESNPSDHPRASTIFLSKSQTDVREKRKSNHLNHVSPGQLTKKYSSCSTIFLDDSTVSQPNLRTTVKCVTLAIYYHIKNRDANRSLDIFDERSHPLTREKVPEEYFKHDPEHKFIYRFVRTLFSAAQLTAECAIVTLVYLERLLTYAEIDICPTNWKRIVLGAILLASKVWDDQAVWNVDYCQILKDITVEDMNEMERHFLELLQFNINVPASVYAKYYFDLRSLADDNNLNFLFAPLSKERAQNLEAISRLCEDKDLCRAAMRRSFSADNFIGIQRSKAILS

The other results are listed elsewhere or left out.

Compound in this test: c1cn2cc(-c3ccc4cn[nH]c4c3)nc(Nc3ccc(N4CCOCC4)cc3)c2n1 [entospletinib]
Briefly: log2 fold change, soluble protein after heating vs DMSO (PISA); higher = thermal stabilisation; K562 cells, 10 uM, 30 min; active = over 0.2 and 3.5 SD of the protein, either way, in both replicates (recomputed). The method, boiled down: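 Soluble protein was quantified by TMTpro 16plex LC-MS/MS after channel sums were equalised. It was obtained as the supernatant after 21,000xg for 90 min from pooled aliquots of K562 cells (2×10^6 cells/mL, 10 μM compound, 30 min) heated for 3 min across 48°C-58°C and extracted in PBS with 0.5% NP-40 at 4°C. Thermal stability values are relative to control samples and come from duplicates. They are given as log2 fold changes.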
For CCT5 (UniProt P48643), the log2 fold change was inactive: -0.08.

For CBLL1 (UniProt Q75N03), the log2 fold change was inactive: 0.

In the case of CCDC32 isoform 2 (UniProt Q9BV29), the log2 fold change was inactive: -0.025.

Consider CDC16 (UniProt Q13042), for which the log2 fold change is inactive: -0.011.

Regarding CD2AP (UniProt Q9Y5K6), the log2 fold change is inactive: -0.029.

On to CCT7 (UniProt Q99832), for which the log2 fold change was inactive: -0.063.

With CC2D1B isoform 2 (UniProt Q5T0F9), the log2 fold change was inactive: 0.004.

On to CCDC85C (UniProt A6NKD9), for which the log2 fold change was inactive: 0.159.

Take CCDC127 (UniProt Q96BQ5): the log2 fold change is inactive: 0.022.

With CD164 (UniProt Q04900), the log2 fold change was inactive: -0.215.

Turning to CD99 (UniProt P14209), the log2 fold change is inactive: 0.066.

In the case of CCSMST1 (UniProt Q4G0I0), the log2 fold change is inactive: -0.039.

With CCDC12 (UniProt Q8WUD4), the log2 fold change was inactive: 0.039.

As to CBFB (UniProt Q13951), the log2 fold change was inactive: -0.129.

Turning to CBR4 (UniProt Q8N4T8), the log2 fold change was inactive: 0.019.

CCPG1 isoform 5 (UniProt Q9ULG6): the log2 fold change was inactive: -0.046.

On to CCDC25 (UniProt Q86WR0), for which the log2 fold change was inactive: -0.039.

As to CCDC6 (UniProt Q16204), the log2 fold change was inactive: -0.033.

As to CDC34 (UniProt P49427), the log2 fold change was inactive: 0.054.

Regarding CD97 (UniProt P48960), the log2 fold change was inactive: 0.032.

On to CCT3 (UniProt P49368), for which the log2 fold change was inactive: -0.004.

With CCNYL1 (UniProt Q8N7R7), the log2 fold change is inactive: -0.087.

As to CCDC174 (UniProt Q6PII3), the log2 fold change is inactive: 0.061.
